In publication PMC5829230, “G-protein βγ subunits determine grain size through interaction with MADS-domain transcription factors in rice”:
For at least one entry, the source does not settle the construct or the ends of the probe.

Test system: GST-OsMADS1lgy3 (Oryza sativa)
Test: EMSA
Conditions: affinity stated unaffected by C domain variation, 10x and 50x unlabeled probe as competitor; LightShift Chemiluminescent EMSA Kit (Thermo 20148); pH and temperature not stated; recombinant protein; protein details: N-terminal GST (pGEX-4T-1); label: biotin

Does “AGGCAGTATCTATCTATTTATTGCGTATAAACTAAAT (double strand) [MADS55-EMSA-probe]” bind?
Result: binds
